Results on one molecule are retold here after patent publication US20190350938A1 (BROAD INSTITUTE, published 2019).

The assay has as its target T1, P2D SLC16A11^REF-V5 (human, UniProt Q8NCK7 1-447).
T1 construct: bait of the proteomics study; also called P2D WT SLC16A11; WT SLC16A11
T1 sequence: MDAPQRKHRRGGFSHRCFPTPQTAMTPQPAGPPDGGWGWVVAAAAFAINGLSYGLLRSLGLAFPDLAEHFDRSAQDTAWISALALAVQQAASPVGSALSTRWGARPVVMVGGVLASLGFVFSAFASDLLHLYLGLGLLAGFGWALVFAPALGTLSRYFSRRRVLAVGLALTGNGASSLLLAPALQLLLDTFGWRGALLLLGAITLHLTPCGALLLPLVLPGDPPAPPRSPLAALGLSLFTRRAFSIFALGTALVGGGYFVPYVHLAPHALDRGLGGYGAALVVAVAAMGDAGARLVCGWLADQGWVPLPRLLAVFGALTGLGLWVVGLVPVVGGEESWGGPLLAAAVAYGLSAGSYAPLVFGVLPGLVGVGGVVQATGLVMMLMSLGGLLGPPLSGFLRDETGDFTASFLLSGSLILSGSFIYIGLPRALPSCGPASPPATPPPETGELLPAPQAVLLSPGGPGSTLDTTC
The assay is described as follows: IP of P2D WT SLC16A11 vs control IP, quantitative mass spectrometry (FIG. 5B top right).

No constants are given. Whether binding was seen depends on the method and setting. Binding seen in cells or lysates may run through a third protein. Here binding means that the protein was enriched with, or labelled near, the bait; the list need not be complete. Tags and fused reporters may be left off the sequences shown.

B1: Basigin (other, human, UniProt P35613-2 22-269, looked up)
chain: AAGTVFTTVEDLGSKILLTCSLNDSATEVTGHRWLKGGVVLKEDALPGQKTEFKVDSDDQWGEYSCVFLPEPMGTANIQLHGPPRVKAVKSSEHINEGETAMLVCKSESVPPVTDWAWYKITDSEDKALMNGSESRFFVSSSQGRSELHIENLNMEADPGQYRCNGTSSKGSDQAIITLRVRSHLAALWPFLGIVAEVLVLVTIIFIYEKRRKPEDVLDDDDAGSAPLKSSGQHQNDKGKNVRQRNSS
modifications: glycosylated (runs as multiple bands)
notes: Endogenous protein co-precipitated from HEK293T lysate; also called BSG; endogenous BSG
On to B1, for which the binding result is “binds”.
